PubChem BioAssay AID652259, Drosophila RNAi Screening Center, 2013

- Screen: 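Genome-wide hunt for genes that control Wingless pathway activity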 (primary screen)
- System: Drosophila clone 8 imaginal disc epithelial cells
- Reagents: long dsRNA against Drosophila genes
- Treatment: pathway stimulated by co-transfected Wingless expression plasmid
- Detection: 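Firefly luciferase from a tcf-site Wingless reporter, measured alongside co-transfected Renilla luciferase that tracks transfection; pathway stimulated by a Wingless plasmid; the firefly-to-Renilla ratio is not deposited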
- Direction: firefly reporter light: higher = more Wg reporter light, before normalisation; Renilla control light: higher = more transfected or surviving cells
- Call rule: 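Strong candidates differ from their plate mean by at least two out of four per-plate statistical tests; weak candidates meet just one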
- Calls: active = candidate regulator (raises or lowers reporter); inactive = not a candidate
The screen tested about 22,000 reagents; this is a random part of those with a known target gene and a result. In the full data, 233 (1.1%) were called active. 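Light values are raw, unnormalised plate reads; the ratio scores behind the reporter calls were not deposited.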 Unmarked entries are inactive. A plus sign joins genes that one reagent is predicted to hit. The record does not give: the amount of reagent, the time to read-out, the dose of the treatment.

Target gene	DRSC id	reporter change call, replicate 1	firefly reporter light, replicate 1	firefly reporter light, replicate 2	Renilla control light, replicate 1	Renilla control light, replicate 2
CG11674 (GeneID 32374)	DRSC19414		1584	7482	954	2579
hdm (GeneID 31705)	DRSC18013		21017		8162	
bip1 (GeneID 38891)	DRSC11327		5312		1720	
gpp (GeneID 40793)	DRSC12515		7491		2477	
gpp (GeneID 40793)	DRSC12516		7440		1259	
rswl (GeneID 37124)	DRSC06923		16584		3851	
tant (GeneID 44785)	DRSC11401		1371	5360	880	2626
CG32264 (GeneID 38438)	DRSC08061		3400		858	
CG32264 (GeneID 38438)	DRSC08167		4267		2521	
CG32264 (GeneID 38438)	DRSC08169		3808		2216	
CG32264 (GeneID 38438)	DRSC08285		9691		3699	
CG32264 (GeneID 38438)	DRSC08437	Wg reporter activity raised	5175		1108	
Sardh (GeneID 37026)	DRSC06981		10272		4163	
CG1371 (GeneID 36053)	DRSC06409		7648		2592	
Saf6 (GeneID 33255)	DRSC00633		11420		3721	
gprs (GeneID 36862)	DRSC06761		4876		2016	
CG31093 (GeneID 43116)	DRSC15689		11145		14322	
east (GeneID 46006)	DRSC18770		28786		9773	
rno (GeneID 38027)	DRSC08584		5687		3088	
CG13898 (GeneID 38092)	DRSC08368		5940		2953	
Amt (GeneID 41841)	DRSC16055		14426		4261	
Tsp42El (GeneID 35622)	DRSC06186		16928		4867	
JMJD5 (GeneID 38097)	DRSC08372		6086		2946	
CG13540 (GeneID 37686)	DRSC04182		1596	5815	340	2406
TotC (GeneID 117462)	DRSC13449		3131		1618	
gny (GeneID 34409)	DRSC02810		6818		2060	
Aos1 (GeneID 41532)	DRSC14113	Wg reporter activity raised	16916		3152	
4E-T (GeneID 43836)	DRSC17201		2553	6000	1402	1937
4E-T (GeneID 43836)	DRSC17208		16935		13009	
fdl (GeneID 250735)	DRSC07279		5916		2153	
CG6066 (GeneID 43267)	DRSC15959		10475		4281	
CG6066 (GeneID 43267)	DRSC22228		1.02e6	9.13e5	5.16e5	4.95e5
CG9107 (GeneID 33843)	DRSC03138		11366		4128	
CG5245 (GeneID 41530)	DRSC15750		16358		3010	
Oatp58Db (GeneID 37544)	DRSC04364		2198	7017	613	3158
CG14757 (GeneID 35797)	DRSC06492		3857	7190	632	2211
Hsp70Aa + Hsp70Ab	DRSC21246		8899		5067	

11 entries from above, arranged by “firefly reporter light, replicate 1”, low to high:
Target gene	DRSC id	reporter change call, replicate 1	firefly reporter light, replicate 1	firefly reporter light, replicate 2	Renilla control light, replicate 1	Renilla control light, replicate 2
tant (GeneID 44785)	DRSC11401		1371	5360	880	2626
CG32264 (GeneID 38438)	DRSC08061		3400		858	
CG32264 (GeneID 38438)	DRSC08169		3808		2216	
CG32264 (GeneID 38438)	DRSC08167		4267		2521	
CG32264 (GeneID 38438)	DRSC08437	Wg reporter activity raised	5175		1108	
gpp (GeneID 40793)	DRSC12516		7440		1259	
gpp (GeneID 40793)	DRSC12515		7491		2477	
CG1371 (GeneID 36053)	DRSC06409		7648		2592	
CG32264 (GeneID 38438)	DRSC08285		9691		3699	
Sardh (GeneID 37026)	DRSC06981		10272		4163	
rswl (GeneID 37124)	DRSC06923		16584		3851	

The list goes on.
Target gene	DRSC id	reporter change call, replicate 1	firefly reporter light, replicate 1	firefly reporter light, replicate 2	Renilla control light, replicate 1	Renilla control light, replicate 2
RnrL (GeneID 34392)	DRSC03413		8426		2836	
Npc2d (GeneID 41232)	DRSC14551		13149		3546	
LManIV (GeneID 34204)	DRSC03222		3908	10853	1296	3467
CG13058 (GeneID 39806)	DRSC09941		8240		3872	
CG13226 (GeneID 36184)	DRSC06346		5968		1786	
GstE4 (GeneID 37109)	DRSC06674		6501		2010	
elgi (GeneID 39735)	DRSC10242		7568		1747	
Or47a (GeneID 36187)	DRSC07491		5105		1755	
cry (GeneID 42305)	DRSC16928		12844		3187	
CG31642 (GeneID 326149)	DRSC02919		7065		4068	
CG2121 (GeneID 35814)	DRSC06819		11702		3100	
CG2121 (GeneID 35814)	DRSC06820		3929	12556	994	3685
DnaJ-H (GeneID 34707)	DRSC03273		3229	5328	1139	2341
hlk (GeneID 46017)	DRSC05021		2964	4407	514	1744
hlk (GeneID 46017)	DRSC05022		2409	8396	402	2484
Ir92a (GeneID 42415)	DRSC15111		18533		3449	
mRpL18 (GeneID 36406)	DRSC06142		9661		3184	
nan (GeneID 39571)	DRSC10551		4503		2428	
CG7627 (GeneID 34148)	DRSC03065		9651		3975	
CG17107 (GeneID 34467)	DRSC02575		2939	9744	1482	4107
CG17107 (GeneID 34467)	DRSC22627		4.19e5	4.46e5	1.41e5	1.35e5
CtsL4 (GeneID 34401)	DRSC02849		2720	8400	924	3952
ND-B14.7 (GeneID 37385)	DRSC04544		2362	6468	802	2896
Psa (GeneID 38175)	DRSC08152		13829		4906	
CG33172 (GeneID 32526)	DRSC21793		4.26e5	4.12e5	1.79e5	1.44e5
CG1850 (GeneID 35647)	DRSC06762		2242	5580	529	2131
Jon66Ci (GeneID 38952)	DRSC10772		753	6464	584	2912
Trm7-32 (GeneID 42056)	DRSC15741		3271	8016	1462	2769
Golgin245 (GeneID 37702)	DRSC04374		20519		4864	
Golgin245 (GeneID 37702)	DRSC22012		5.31e5	5.13e5	1.95e5	1.99e5
Nle (GeneID 33234)	DRSC00763		5559	10708	1898	3577
CG32087 (GeneID 39323)	DRSC10806		8167		2624	
Mf (GeneID 41824)	DRSC16120		16848		3210	
CG4459 (GeneID 42377)	DRSC15582		21746		4822	
CG13733 (GeneID 39951)	DRSC10061		5317		2397	
CG5167 (GeneID 41521)	DRSC15728		16912		3200	
